Reference: paper PMC5261007
No constants are given. Whether binding was seen depends on the method and setting. Binding seen in cells or lysates may run through a third protein. Some results given as binding are weak or reduced against the parent protein; the word gives no strength.

By UniProt entry, the sequences of proteins in these tests, tags left out.
UniProt P10070: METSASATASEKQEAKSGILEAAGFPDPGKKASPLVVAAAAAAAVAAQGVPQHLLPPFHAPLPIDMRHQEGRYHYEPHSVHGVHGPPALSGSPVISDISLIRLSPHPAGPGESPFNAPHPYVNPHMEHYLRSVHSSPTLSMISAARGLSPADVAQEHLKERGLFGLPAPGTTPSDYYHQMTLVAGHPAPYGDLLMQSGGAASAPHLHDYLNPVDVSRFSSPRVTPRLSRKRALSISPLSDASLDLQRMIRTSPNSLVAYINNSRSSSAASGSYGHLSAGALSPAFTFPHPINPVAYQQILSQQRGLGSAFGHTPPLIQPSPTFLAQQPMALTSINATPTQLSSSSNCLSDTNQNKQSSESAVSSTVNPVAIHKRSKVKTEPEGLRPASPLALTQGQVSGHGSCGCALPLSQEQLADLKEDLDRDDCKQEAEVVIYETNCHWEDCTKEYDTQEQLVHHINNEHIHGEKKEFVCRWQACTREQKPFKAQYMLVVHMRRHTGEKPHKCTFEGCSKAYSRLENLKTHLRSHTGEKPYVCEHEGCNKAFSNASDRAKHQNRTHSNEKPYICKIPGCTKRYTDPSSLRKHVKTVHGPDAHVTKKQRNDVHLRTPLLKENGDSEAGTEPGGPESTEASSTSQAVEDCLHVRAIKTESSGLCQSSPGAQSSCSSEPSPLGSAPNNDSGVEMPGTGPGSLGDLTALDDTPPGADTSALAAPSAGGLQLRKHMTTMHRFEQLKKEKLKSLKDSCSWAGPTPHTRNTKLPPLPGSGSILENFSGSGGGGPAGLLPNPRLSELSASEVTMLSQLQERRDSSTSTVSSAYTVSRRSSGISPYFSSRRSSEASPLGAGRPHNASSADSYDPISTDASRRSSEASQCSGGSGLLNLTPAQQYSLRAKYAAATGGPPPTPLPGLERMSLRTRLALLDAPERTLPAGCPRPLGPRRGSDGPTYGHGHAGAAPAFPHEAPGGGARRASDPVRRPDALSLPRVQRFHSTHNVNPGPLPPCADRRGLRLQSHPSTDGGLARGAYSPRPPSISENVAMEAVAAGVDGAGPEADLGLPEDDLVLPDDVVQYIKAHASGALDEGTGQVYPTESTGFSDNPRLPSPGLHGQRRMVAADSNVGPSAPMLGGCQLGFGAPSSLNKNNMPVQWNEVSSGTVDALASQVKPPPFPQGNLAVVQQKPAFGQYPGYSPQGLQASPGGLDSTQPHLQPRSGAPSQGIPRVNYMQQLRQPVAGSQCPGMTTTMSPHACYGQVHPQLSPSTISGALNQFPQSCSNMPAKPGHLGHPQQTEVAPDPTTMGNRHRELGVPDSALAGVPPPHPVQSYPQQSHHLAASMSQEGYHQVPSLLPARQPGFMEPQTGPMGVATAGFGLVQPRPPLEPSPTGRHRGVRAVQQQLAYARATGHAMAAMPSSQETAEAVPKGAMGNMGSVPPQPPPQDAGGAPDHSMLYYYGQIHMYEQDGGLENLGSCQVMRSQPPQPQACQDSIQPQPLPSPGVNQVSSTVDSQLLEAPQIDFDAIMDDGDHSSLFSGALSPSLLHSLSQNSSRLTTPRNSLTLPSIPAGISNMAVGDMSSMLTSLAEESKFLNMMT
UniProt O43791: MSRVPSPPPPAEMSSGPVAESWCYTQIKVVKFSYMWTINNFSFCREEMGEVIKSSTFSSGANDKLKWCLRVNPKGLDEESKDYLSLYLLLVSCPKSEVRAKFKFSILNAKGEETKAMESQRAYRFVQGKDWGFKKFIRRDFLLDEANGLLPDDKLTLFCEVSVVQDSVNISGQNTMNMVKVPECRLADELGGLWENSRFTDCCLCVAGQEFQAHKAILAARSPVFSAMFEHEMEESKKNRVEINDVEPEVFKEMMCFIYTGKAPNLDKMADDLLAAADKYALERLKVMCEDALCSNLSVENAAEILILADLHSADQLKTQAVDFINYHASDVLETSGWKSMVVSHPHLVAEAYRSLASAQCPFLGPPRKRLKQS

Target: Gli2 (human (endogenous in Lovo)) (UniProt P10070)
Assay: co-IP; supernatant of Lovo cell lysates incubated with indicated antibodies and protein-G agarose beads at 4 °C overnight; washed with 0.1% Lubrol-PX, 50 mM KCl, 2 mM CaCl2, 20% glycerol, 50 mM Tris-HCl, pH 7.4; immunoblot; goat anti-rabbit IgG as negative control

## speckle-type POZ protein (SPOP) (from UniProt O43791 1-374)
  binding: binds
